The supplement of paper PMC4840960
Counter-ions that a name gives are not always drawn. This is one part of the list. Plates or batches differ in their baseline, so values are only roughly comparable.

Test system: E18 rat cortical neuron-glia co-culture
Assay: total nuclei (DAPI) / Olig2+ nuclei (ratio); higher = more depletion of OPC/OL lineage cells
Settings: treatment time: 8 days (DIV5-DIV13)

Structure (SMILES)	total nuclei (1 µM)	total nuclei (5 µM)
CCOC(=O)O[C@]1(C(=O)OCCl)CC[C@H]2[C@@H]3CCC4=CC(=O)C=C[C@]4(C)[C@H]3[C@@H](O)C[C@@]21C [Loteprednol etabonate]	2.9	3
CC(=O)Oc1ccccc1C(=O)Nc1ncc([N+](=O)[O-])s1 [Nitazoxanide]	2.95	3.9
C[C@]12CC[C@@H]3c4ccc(OS(=O)(=O)O)cc4CC[C@H]3[C@@H]1CCC2=O [Estrone sulfate]	4	4.1
Nc1nc2ccc(Cl)cc2c2nc(-c3ccco3)nn12	4.37	6.5
